According to paper PMC7229178:
These are yes or no findings as the source states them, for the method shown. In cells and extracts the contact can be indirect. Some binding calls cover weakened binding; strength is not graded here.

Amino acid sequences for entries named in this document (tags omitted). Residues count along the entry.
UniProt Q96D31: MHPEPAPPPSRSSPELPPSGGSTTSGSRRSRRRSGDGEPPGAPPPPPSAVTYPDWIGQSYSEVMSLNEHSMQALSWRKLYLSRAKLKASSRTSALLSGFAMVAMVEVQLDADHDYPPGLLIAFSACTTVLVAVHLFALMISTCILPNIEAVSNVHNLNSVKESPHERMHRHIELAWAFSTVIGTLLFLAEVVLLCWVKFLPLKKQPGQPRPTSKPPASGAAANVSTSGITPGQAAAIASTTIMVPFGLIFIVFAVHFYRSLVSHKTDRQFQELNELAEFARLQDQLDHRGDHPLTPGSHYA
UniProt Q13586, residues 23-685: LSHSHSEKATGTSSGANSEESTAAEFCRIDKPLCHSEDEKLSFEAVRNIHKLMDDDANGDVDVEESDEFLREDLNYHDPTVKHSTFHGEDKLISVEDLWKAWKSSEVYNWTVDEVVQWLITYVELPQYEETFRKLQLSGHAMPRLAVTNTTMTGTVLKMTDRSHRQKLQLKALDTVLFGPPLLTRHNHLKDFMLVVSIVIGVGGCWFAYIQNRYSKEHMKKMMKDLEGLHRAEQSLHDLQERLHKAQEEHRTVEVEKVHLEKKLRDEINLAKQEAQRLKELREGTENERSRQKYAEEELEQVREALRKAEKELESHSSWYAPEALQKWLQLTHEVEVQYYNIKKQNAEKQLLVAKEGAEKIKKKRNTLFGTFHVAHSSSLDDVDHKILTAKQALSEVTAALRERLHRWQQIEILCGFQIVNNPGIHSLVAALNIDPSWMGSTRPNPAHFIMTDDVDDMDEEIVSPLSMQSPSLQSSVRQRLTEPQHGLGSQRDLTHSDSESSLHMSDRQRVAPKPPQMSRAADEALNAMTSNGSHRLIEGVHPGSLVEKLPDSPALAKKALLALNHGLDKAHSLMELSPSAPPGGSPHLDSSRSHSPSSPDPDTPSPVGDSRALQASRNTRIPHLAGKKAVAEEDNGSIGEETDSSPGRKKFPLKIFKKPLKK
UniProt Q96SN7: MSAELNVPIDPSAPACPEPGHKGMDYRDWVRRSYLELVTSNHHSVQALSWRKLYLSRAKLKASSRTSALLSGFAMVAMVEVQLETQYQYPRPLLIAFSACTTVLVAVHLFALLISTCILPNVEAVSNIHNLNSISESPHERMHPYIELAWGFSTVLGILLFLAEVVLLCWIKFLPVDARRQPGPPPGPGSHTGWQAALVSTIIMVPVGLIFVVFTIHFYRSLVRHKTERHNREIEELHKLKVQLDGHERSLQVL

Key:
CFP/YFP-tagged ORAI1 = CFP/YFP-tagged ORAI1 (UniProt Q96D31); assay: FRET or BRET; E-FRET microscopy in live ORAI-TKO HEK293 cells co-expressing two CFP/YFP-tagged ORAI isoforms with STIM1-mCherry; room temperature; at baseline and 5 min after 10, 30 or 100 µM Cch or 1 µM ionomycin
STIM1-YFP = STIM1-YFP (UniProt Q13586); assay: FRET or BRET; E-FRET microscopy in live ORAI-TKO HEK293 cells co-expressing STIM1-YFP and one CFP-ORAI isoform; room temperature; HBSS with 2 mM Ca2+; at rest and after 2 µM thapsigargin; measured every 20 s for 10 min; YFP/CFP ratios of ~1

Row | binding (CFP/YFP-tagged ORAI1) | binding (STIM1-YFP) | Substance
1 | binds | – | CFP/YFP-tagged ORAI2 (from UniProt Q96SN7 1-254)
2 | – | binds | CFP-ORAI2 (from UniProt Q96SN7 1-254)
